Experimental data published in PubChem BioAssay AID1688 (National Center for Advancing Translational Sciences (NCATS), 2009).
The campaign covered roughly 220,000 compounds. About 2,400 (1.1%) were called active. Inconclusive results, whose numbers are uncertain, are shown with a selection of clear calls. Calls come from the whole dose curve; as a rule, active = well fitted inhibition curve with a large enough effect; inconclusive = small, poorly fitted or top-dose-only effect, or effect the other way; inactive = no such curve, though single readings can be large or run the other way. Potencies beside an inconclusive call are fits to weak or partial responses and may not hold up.

assay: qHTS Multiplex Assay to Identify Dual Action Probes in a Cell Model of Huntington: Aggregate Formation (GFP); conditions: PC12 HttQ103-GFP aggregates, Acumen cytometry, 40 h; activity change, negative = inhibition: at 46.1 µM (top of the series) unless noted; note: nearly all actives have a fitted effect of over 60% in size
How it was run: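 PC12/HTTQ103-GFP, ecdysone-inducible; teb 100 nM; cpd qHTS titration; GFP aggregates read on laser cytometer, Ex 488/Em 500-530 nm.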
% is set by controls: 0 for no effect and ±100 for the full control effect; potency is the fitted concentration of half-maximal effect.

Row | SMILES | activity change, negative = inhibition | Potency
1 | Cc1ccc(S(=O)(=O)c2c(N)n(/N=C/c3ccco3)c3nc4ccccc4nc23)cc1C | inactive: -10.5% | 
2 | Cc1nc(Nc2ccccc2)sc1C(=O)Nc1ccccc1 | inactive: -12.8% [at 9.22 µM] | 
3 | CCOC(=O)C1=C(C)NC(SCC(=O)Nc2nc(C)cs2)=C(C#N)C1c1cccs1 (configuration not stated) |  | inconclusive: 35.5 µM [inhibitor, single point]
4 | O=C(Oc1ccc(Cl)cc1)c1ccc2nccnc2c1 |  | inconclusive: 1.26 µM [activator, single point]
5 | COc1ccc(C(=O)Oc2cc(N)n(S(=O)(=O)c3ccccc3)n2)cc1 |  | inconclusive: 0.794 µM [inhibitor, single point]
6 | COc1ccc(NC(=S)N(CCCN2CCCC(C)C2)Cc2cccs2)cc1 (configuration not stated) |  | inconclusive: 15.8 µM [activator, single point]
7 | CCn1ccnc1CN1CCc2c([nH]c3ccccc23)C1C(C)(C)C (configuration not stated) |  | inconclusive: 11.2 µM [inhibitor, partial curve]
8 | Cc1sc2nc(C3CC3)nc(SCC(=O)N3CCc4ccccc4C3)c2c1C |  | active: 7.08 µM
9 | CCOC(=O)N1CCN(C(=O)c2ccc(Cn3c(=S)[nH]c4cc5c(cc4c3=O)OCO5)cc2)CC1 |  | inconclusive: 14.1 µM [inhibitor, single point]
10 | CCOc1ccc(-n2c(-c3ccc(OC)cc3)c[n+]3c2CCCCC3)cc1 |  | active: 7.94 µM
11 | Cc1ccc(C)c(S(=O)(=O)N2CCC(c3nc4c(nnn4Cc4ccc(F)cc4)c(=O)[nH]3)CC2)c1 |  | inconclusive: 11.2 µM [inhibitor, single point]
12 | Clc1ccc(OCCSc2ncccn2)c2ccccc12 |  | inconclusive: 15.8 µM [inhibitor, single point]
13 | CCOC(=O)C1CCCN(C(=O)c2ccc3c(c2)N(Cc2ccccc2)C(=O)c2ccccc2S3=O)C1 (configuration not stated) | inactive: -3.38% | 
14 | NC(=O)c1cccnc1Nc1ccccc1F |  | inconclusive: 3.98 µM [activator, full curve, poor fit]
15 | COC(=O)c1ccc(OCCCCN2CC(C)OC(C)C2)cc1 (configuration not stated) |  | inconclusive: 2.82 µM [activator, partial curve]
16 | COc1cccc(/C=N\NC(=O)c2sc(N)nc2C)c1OC | inactive: 17.6% | 
17 | CC1=NN(c2ccc(Cl)c(C(=O)O)c2)C(=O)/C1=C\c1ccc(-c2ccc(C(=O)O)cc2)o1 | inactive: -4.78% | 
18 | N#C/C(=C/c1ccccc1[N+](=O)[O-])C(=O)NCc1ccco1 |  | inconclusive: 5.62 µM [inhibitor, single point]
19 | COc1cccc(C2=NOC(C(=O)NCc3ccc(F)cc3)C2)c1 (configuration not stated) | inactive: 4.7% | 
20 | O=C(Nc1ccc(S(=O)(=O)NCc2cccnc2)cc1)c1ccco1 |  | inconclusive: 10 µM [inhibitor, partial curve]
21 | Cc1cc(C)c(NC(=S)NCCCSC2CCCCC2)c(C)c1 |  | active: 11.2 µM
22 | COc1ccc(S(=O)(=O)N(C)c2ccc(C(=O)N3CCOCC3)cc2)cc1 | inactive: -18% | 
23 | Cc1cc(C)c2c(=O)c(/C=C3\NC(=S)NC3=O)coc2c1 | inactive: -7.96% [at 9.22 µM] | 
24 | O=c1oc2ccccc2c(Cl)c1CN1CCCCC1 |  | inconclusive: 3.55 µM [inhibitor, single point]

Whole records, looked up by structure:
`CCOC(=O)N1CCN(C(=O)c2ccc(Cn3c(=S)[nH]c4cc5c(cc4c3=O)OCO5)cc2)CC1` as listed: Potency: inconclusive: 14.1 µM [inhibitor, single point]
`CCOc1ccc(-n2c(-c3ccc(OC)cc3)c[n+]3c2CCCCC3)cc1` as listed: Potency: active: 7.94 µM

More records follow.

Row | SMILES | activity change, negative = inhibition | Potency
25 | CC1CCc2sc(C(=O)NN=C3CCC(c4ccccc4)CC3)cc2C1 (configuration not stated) |  | inconclusive: 2.82 µM [inhibitor, partial curve]
26 | COc1cccc(/C=N/Nc2nc(Nc3ccccc3)nc(-n3nc(C)cc3C)n2)c1O |  | active: 1.12 µM
27 | NC1=C(c2ccc(F)cc2)C(=O)CS1 |  | inconclusive: 35.5 µM [inhibitor, single point]
28 | CCOc1ccccc1NC(=O)Cn1nnc(C(=O)NCCc2ccc(OC)c(OC)c2)c1N |  | inconclusive: 6.31 µM [inhibitor, single point]
29 | CC(=O)CCc1c[nH]c2c(C(=O)O)cccc12 |  | inconclusive: 35.5 µM [inhibitor, single point]
30 | COc1ccccc1NC(=O)C1=C(C)NC(SCC(=O)c2ccc(C)cc2)=C(C#N)C1c1ccco1 (configuration not stated) |  | inconclusive: 35.5 µM [inhibitor, single point]
31 | N#Cc1c2c(c[nH]c1=O)CCN2Cc1ccccc1 | inactive: -9.14% | 
32 | CCOc1ccc(S(=O)(=O)NCc2ccncc2)cc1 |  | inconclusive: 1.26 µM [inhibitor, full curve]
33 | Cc1nc2ccc(NC(=O)N(C(C)C)C(C)C)cc2s1 | inactive: 2.71% | 
34 | Fc1ccc(-n2cc(-c3ccccc3)c3c(N4CCOCC4)ncnc32)cc1 |  | inconclusive: 22.4 µM [inhibitor, single point]
35 | COc1ccc(CNc2cc(C)nc3ncnn23)c(OC)c1 |  | inconclusive: 7.94 µM [inhibitor, partial curve]
36 | CCN(CC)c1ccc(/C=N/n2nnnc2N)c(O)c1 |  | active: 5.62 µM
37 | S=C(NCCSCc1ccccc1Cl)Nc1ccccc1 |  | inconclusive: 35.5 µM [inhibitor, single point]
38 | COc1ccc(-c2oc3cc(O)c(OC)c(O)c3c(=O)c2OC)cc1 | inactive: -2.33% [at 9.22 µM] | 
39 | [O-][n+]1onc2c1CCC(=N/O)/C2=N\Nc1ccccc1 | inactive: 3.58% [at 9.22 µM] | 
40 | Cc1c(N2C(=O)CS/C2=N\N=C\c2ccccc2O)c(=O)n(-c2ccccc2)n1C |  | inconclusive: 12.6 µM [activator, partial curve]
41 | CCc1ccc(S(=O)(=O)/N=C2\C=CC(=O)c3ccccc32)cc1 |  | inconclusive: 35.5 µM [inhibitor, single point]
42 | Cc1sc2ncn(CC(=O)NCCCC(=O)N3CCN(Cc4ccc5c(c4)OCO5)CC3)c(=O)c2c1C | inactive: -6.65% | 
43 | COc1cccc(NC(=O)CSc2nnc(Cc3cccs3)n2-c2ccc(C)cc2)c1 | inactive: 13.3% | 
44 | Nc1ccc(Sc2ccc([N+](=O)[O-])cc2)cc1 | inactive: 2.17% | 
45 | COC(=O)c1c(NC(=O)CSc2nnc3ccccn23)sc2c1CCC2 | inactive: -16.4% | 
46 | CCn1c2ccc(/C(C)=N\O)cc2c2cc(/C(C)=N\O)ccc21 |  | inconclusive: 35.5 µM [activator, partial curve, poor fit]
47 | COc1ccc(-n2c(C)cc(/C=C3/SC(=O)N(CC(=O)N4CCOCC4)C3=O)c2C)cc1 |  | inconclusive: 0.891 µM [inhibitor, single point]
48 | CCOc1ccc(C(=O)CC(Sc2ccc(C)cc2)C(=O)O)cc1 (configuration not stated) |  | inconclusive: 31.6 µM [inhibitor, single point]

Row | SMILES | activity change, negative = inhibition | Potency
49 | O=C(NCc1ccco1)c1ccc([N+](=O)[O-])o1 |  | inconclusive: 3.98 µM [activator, single point]
50 | CCC(C)(C)n1nnnc1CN1CCN(c2nc3cc(OC)ccc3cc2C#N)CC1 |  | inconclusive: 35.5 µM [inhibitor, single point]
51 | Cc1cc(NC(=O)CSc2nnc(COc3cccc(C)c3C)n2Cc2ccco2)no1 |  | inconclusive: 15.8 µM [activator, single point]
52 | O=C(NNC(=S)Nc1cccc(C(F)(F)F)c1)c1ccc(Cl)cc1Cl |  | active: 11.2 µM
53 | O=C(Nc1nnc(C2=COCCO2)o1)C1CCCCC1 |  | inconclusive: 2 µM [activator, partial curve]
54 | Cn1c(=O)c2c(nc(NCc3ccccc3)n2Cc2ccc(F)cc2)n(C)c1=O |  | active: 20 µM
55 | Cc1ccc(CSc2nn3c(=O)c(C)nnc3s2)cc1 |  | inconclusive: 15.8 µM [activator, partial curve]
56 | Cc1nnc(SCC(=O)NCC2CCCO2)n1-c1ccccc1 (configuration not stated) | inactive: -2.65% | 
57 | CN1/C(=C\C(=O)Nc2cccnc2)c2ccccc2CC1(C)C |  | inconclusive: 35.5 µM [inhibitor, single point]
58 | OCCCCCNc1ncnc2ccccc12 |  | active: 7.94 µM
59 | O=C(CSc1nnc(-c2ccc(OC(F)F)cc2)o1)NCc1cccs1 |  | inconclusive: 2.82 µM [inhibitor, single point]
60 | CC1CCCCN1S(=O)(=O)c1ccc(C(=O)Nc2sccc2C(N)=O)cc1 (configuration not stated) |  | inconclusive: 25.1 µM [inhibitor, single point]
61 | CCCC(=O)NC(=S)Nc1cccc(Cl)c1N1CCCCC1 |  | inconclusive: 25.1 µM [inhibitor, single point]
62 | O=c1[nH]c2cc(S(=O)(=O)CCO)ccc2o1 | inactive: -16.1% [at 9.22 µM] | 
63 | Cn1c(SC2=CS(=O)(=O)c3ccccc32)nc2ccccc21 |  | inconclusive: 35.5 µM [inhibitor, single point]
64 | Cn1c(C(=O)NCC2CCCO2)cc2c(=O)n(C)c3ccccc3c21 (configuration not stated) |  | inconclusive: 5.62 µM [inhibitor, single point]
65 | Oc1ccc(NC(=S)N=Nc2c(O)[nH]c3ccc(Br)cc23)cc1 |  | inconclusive: 35.5 µM [inhibitor, single point]
66 | C=C(C)C(=O)Nc1nnc(-c2cccs2)s1 |  | inconclusive: 1.26 µM [inhibitor, single point]
67 | O=c1[nH]c2ccccc2n1CCCSCCCn1c(=O)[nH]c2ccccc21 |  | active: 11.2 µM
68 | CN(C)S(=O)(=O)c1ccc(C(=O)N2CCC(c3nc4ccccc4o3)CC2)cc1 | inactive: -26.3% | 
69 | O=C(COC(=O)/C=C/C(=O)OCC(=O)NC12CC3CC(CC(C3)C1)C2)NC12CC3CC(CC(C3)C1)C2 |  | inconclusive: 5.62 µM [inhibitor, single point]
70 | O=C(Nc1nc2ccccc2n1Cc1ccccc1)c1ccco1 |  | inconclusive: 11.2 µM [inhibitor, partial curve]
71 | COC(=O)c1cc(Cl)c(NC(=O)C(C)C)cc1OC |  | inconclusive: 7.08 µM [activator, partial curve]
72 | O=[N+]([O-])c1cnc(N2CCCCC2)c([N+](=O)[O-])c1 |  | inconclusive: 35.5 µM [activator, single point]
